The list shows a part of the results.

This assay deals with T1, OsSMF1 (Oryza sativa, UniProt Q6ZLB0 1-436).
T1 sequence: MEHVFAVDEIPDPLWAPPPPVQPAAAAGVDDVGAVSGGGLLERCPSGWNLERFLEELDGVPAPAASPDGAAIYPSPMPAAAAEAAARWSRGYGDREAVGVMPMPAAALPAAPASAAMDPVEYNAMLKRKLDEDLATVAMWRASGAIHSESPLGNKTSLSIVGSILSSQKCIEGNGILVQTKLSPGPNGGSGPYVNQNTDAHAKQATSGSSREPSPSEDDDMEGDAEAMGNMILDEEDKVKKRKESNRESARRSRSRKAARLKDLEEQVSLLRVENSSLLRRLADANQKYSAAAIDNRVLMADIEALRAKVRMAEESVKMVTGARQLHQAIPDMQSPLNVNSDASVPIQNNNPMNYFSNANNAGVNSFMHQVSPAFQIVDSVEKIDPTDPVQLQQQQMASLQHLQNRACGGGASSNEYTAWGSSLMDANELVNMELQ
Kind of assay: protein-binding microarray (RPBM); PBS, 2% BSA, 51.3 ng/ul salmon testes DNA, 50 uM zinc acetate, 200 nM TF, 25 C, 1 h; high values mean tight binding. The note with it: protein: recombinant; tags: N-terminal polyhistidine and DsRed monomer fusion (pET32a); chain copies: 2; label: CyDye5-dUTP incorporated in the synthesized complementary strand; 3' TTTTT single-stranded linker to array surface; dsDNA, one strand shown. In short, it runs like this:
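Binding signal here means per-feature fluorescence intensity in arbitrary units. The values were read on an Axon 4000B scanner after a custom Agilent array, double-stranded by primer extension with Cy5-dUTP, was incubated with 200 nM protein at 25 °C for 1 h in PBS with 2% BSA, salmon testes DNA and 50 µM zinc acetate, then washed. The proteins were transcription factors with an N-terminal polyhistidine tag and DsRed, expressed in E. coli BL21-CodonPlus and purified on Ni–NTA.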
On to “CGAGCCCGTTTCACGCTCGCGTGGTTCCGCGATCCCGAAGCGGAGTCACCTAGTGCAG”, for which the binding signal is 3300 fluorescence intensity (a.u.). The result for “TACAGCATCATCTCGCCACGTTCTTCCAAAATATTGGTTGCGGAGTCACCTAGTGCAG” reads 3450 fluorescence intensity (a.u.); that for “AGAACCAACAATTACATAACAACATGATGACACTGCATTGCGGAGTCACCTAGTGCAG”, 5170 fluorescence intensity (a.u.); that for “ACTTGCCTACAGCGCCAACGCGCAAACAGCAACCACTAGCCGGAGTCACCTAGTGCAG”, 3140 fluorescence intensity (a.u.). “GACCCAGCAAGCAAGAGCGTCTAGTCACCTCAACCACGAACGGAGTCACCTAGTGCAG”: the binding signal is 6180 fluorescence intensity (a.u.). As to “GATTAAATACTGTAGCTACGGATAATCAATCCCACGTGTACGGAGTCACCTAGTGCAG”, the binding signal was 7540 fluorescence intensity (a.u.). The result for “ATGCAAGGCGCCATGAACCTAAACGATTAGGTTTTCCGTTCGGAGTCACCTAGTGCAG” reads 7710 fluorescence intensity (a.u.); that for “ACTTAGTAAAATGTCATGATGTTGAAGTGTTTAGTGTCCACGGAGTCACCTAGTGCAG”, 5890 fluorescence intensity (a.u.); that for “TTGCAATTGCTGATTGTACATCTGAAATGGTTTCCTTTTGCGGAGTCACCTAGTGCAG”, 5010 fluorescence intensity (a.u.). Take “TAAACAAAGCGCTGCACAAGGAGCGAGGCGGAGGAGGAGGCGGAGTCACCTAGTGCAG”: the binding signal is 21700 fluorescence intensity (a.u.). “TAACAAACATAAATCAGTTGAGAGTGAGAGGGACGTGGAACGGAGTCACCTAGTGCAG”: the binding signal is 4300 fluorescence intensity (a.u.). The result for “TCTCATCACTCGTGTTAATTCGCATATTCTTTATGGTCTACGGAGTCACCTAGTGCAG” reads 3200 fluorescence intensity (a.u.). Take “GCGAACGCCTCTCGCGCGCGTGCTTACTGGTGACTGGTCCCGGAGTCACCTAGTGCAG”: the binding signal is 4600 fluorescence intensity (a.u.). The figure for “CACTCCCTTCCCCAATTCGCCGTCACCTGCAGCTGAGTGTCGGAGTCACCTAGTGCAG” is 3630 fluorescence intensity (a.u.); for “CACGCGCCTCGCTGTCACCTATATATGTCCACGTCACCGCCGGAGTCACCTAGTGCAG” it is 31800 fluorescence intensity (a.u.). The figure for “GCTTTATATGGGCCGGCACCTGATGGGCCTTCGTCATTTCCGGAGTCACCTAGTGCAG” is 4000 fluorescence intensity (a.u.); for “TTTGATTTGGAGGAAGAGGAGAGGGTGGTGTTAGGTGAAACGGAGTCACCTAGTGCAG” it is 16600 fluorescence intensity (a.u.). The result for “TAGTCCTCCTTGGCTACGGTGTCATAGATCGAGGCCTCCGCGGAGTCACCTAGTGCAG” reads 50200 fluorescence intensity (a.u.); that for “AATCGCGAGATATCCACGTGAGATTGCGCAGCGAGACGCGCGGAGTCACCTAGTGCAG”, 5140 fluorescence intensity (a.u.). For “GTCCGATCCTACTCTCGCGCCACATCGGACGGCCACGATCCGGAGTCACCTAGTGCAG”, the binding signal is 3160 fluorescence intensity (a.u.). The figure for “AAACTTTATGTATAGAAATAATATATATATATATATATATCGGAGTCACCTAGTGCAG” is 29000 fluorescence intensity (a.u.).

Take “CATTTGTAAGTTCAGTTGATATGACATGTAAGTGTATTGTCGGAGTCACCTAGTGCAG”: the binding signal is 3960 fluorescence intensity (a.u.). The figure for “CGCCCGCCGCCTCCGTCGTCCCCGACCTCTACCACGCCCTCGGAGTCACCTAGTGCAG” is 3300 fluorescence intensity (a.u.); for “GACCAATTGAAGGTGGTCCACCGGCAATCCTCCCACGTCGCGGAGTCACCTAGTGCAG” it is 3530 fluorescence intensity (a.u.); for “GAAGAAGAGCAAGCCCAAGTGTGCATGCGTGTATGCGCACCGGAGTCACCTAGTGCAG” it is 3610 fluorescence intensity (a.u.). For “TGAATACTGATGGCTACTGATTAACAGGTACACATCAGCCCGGAGTCACCTAGTGCAG”, the binding signal was 4810 fluorescence intensity (a.u.).

Turning to “TGTATGGGCCTTACGTCAGCACGGCCCAGTTGCTGGTTTTCGGAGTCACCTAGTGCAG”, the binding signal was 17700 fluorescence intensity (a.u.).

Regarding “AGGATGGAGGGAGTACTTATCTGACCTCAGAATCCAGGCGCGGAGTCACCTAGTGCAG”, the binding signal is 3220 fluorescence intensity (a.u.). “ACTACGTTATGCATTTGTTTAAGAAAATTGTTAATTTCGACGGAGTCACCTAGTGCAG”: the binding signal is 3260 fluorescence intensity (a.u.). The result for “GAGCCTGCTTTGTTTTCTTAATTTGTCATGATCTTTCATCCGGAGTCACCTAGTGCAG” reads 3350 fluorescence intensity (a.u.); that for “TGTCCGGACTTGATGACGCCGCTGGCTCCATCACCGACAACGGAGTCACCTAGTGCAG”, 5550 fluorescence intensity (a.u.); that for “AAACCCAAGCAAACCAGCAGCTACTAAGCAAAGCACAACCCGGAGTCACCTAGTGCAG”, 33900 fluorescence intensity (a.u.). “CGACCCAGCAAAATCTTCTTCTCCCGAGACGAACCACCCGCGGAGTCACCTAGTGCAG”: the binding signal was 25500 fluorescence intensity (a.u.). Regarding “GTGGCGCGCGCGCGCACGCACGCTGGGCGACACGCCACGCCGGAGTCACCTAGTGCAG”, the binding signal was 4530 fluorescence intensity (a.u.). The figure for “GAAGCCCTAGCCTAGGAGTGAGAGGTCCCACGTCTTCCCCCGGAGTCACCTAGTGCAG” is 3780 fluorescence intensity (a.u.); for “AGAAAGTCTGACGAGAATTAATACCTTCGTCAAAGCCAGCCGGAGTCACCTAGTGCAG” it is 38600 fluorescence intensity (a.u.). The figure for “ATTGCCTACATGCCTAGTACTCCCCAGCGAGGTGGAGGTGCGGAGTCACCTAGTGCAG” is 4180 fluorescence intensity (a.u.). The result for “CCCACCAGCACTTTCCAGAGAAACAAACTCCACGTGTGACCGGAGTCACCTAGTGCAG” reads 8780 fluorescence intensity (a.u.). With “AGAGGCAGTAGAGGTGTGGAGGCCTTGGACAGTTGGATTCCGGAGTCACCTAGTGCAG”, the binding signal is 3370 fluorescence intensity (a.u.). The figure for “AGAAAGGGTGATGATGTGGTCACCCTAATATGTGAGGTTCCGGAGTCACCTAGTGCAG” is 6700 fluorescence intensity (a.u.); for “AGTGCGGCGGTGGTTGCCGTGGCACTGCCAATGCCCAAAACGGAGTCACCTAGTGCAG” it is 4060 fluorescence intensity (a.u.); for “ACTACTGTTGATGTGTGTGTTACTATGTAATTCTTGTGTTCGGAGTCACCTAGTGCAG” it is 5090 fluorescence intensity (a.u.).
